Data as given in PubChem BioAssay AID602196 (INSERM, 2012)

- Screen: 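Modifiers of cisplatin sensitivity in A549 cells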
- Cells: human A549 lung cancer cells
- Knock-down reagent: siRNA pair against human genes
- Duration: 48 h transfection before cisplatin; time from cisplatin to read-out not stated
- Treatment: cisplatin at a dose killing half of control-siRNA cells; exact dose and duration not given
- Measured: 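Cisplatin cell death as a shift from the 50% death seen with control siRNA; siRNAs toxic or growth-blocking alone scored 0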
- Direction: two-siRNA summed score (-2 to +2): higher = both siRNAs protect from cisplatin killing; -2 means both sensitise
- Active means: 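siRNAs harmful alone (LDH or WST-1) get 0; others get +1 for less and -1 for more cisplatin killing; genes are active when the two siRNAs give the same sign, summing to ±2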
- Calls: active = both siRNAs shift cisplatin killing the same way; inactive = no consistent shift, or siRNA harmful alone
The whole screen tested about 23,000 reagents; shown is a part drawn at random. Of all reagents, 455 (2%) are marked active. 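Active includes both protection and sensitisation; some change values fall well beyond the stated -50 to +50 range.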 Further read-outs or replicates are left out here. Not given: the amount of reagent.

Depletion of PRKD2 [SID131501697] came out at: two-siRNA summed score (-2 to +2) = -1; inactive.
Depletion of ZNF575 [SID131511291] came out at: two-siRNA summed score (-2 to +2) = 0; inactive.
KRT17 [SID131501810] gave two-siRNA summed score (-2 to +2) = -1; inactive.
Against FLJ42528 [SID131515948], the entry reads two-siRNA summed score (-2 to +2) = 0; inactive.
For NEUROG3 [SID131508104], the entry reads two-siRNA summed score (-2 to +2) = 0; inactive.
ATM [SID131520474] scored two-siRNA summed score (-2 to +2) = 1; inactive.
Depletion of TRIAP1 [SID131505701] gave: two-siRNA summed score (-2 to +2) = 0; inactive.
KCNK12 [SID131500788] gave two-siRNA summed score (-2 to +2) = -1; inactive.
For USP49 [SID131516663], the values are two-siRNA summed score (-2 to +2) = 0; inactive.
Against ADCY5 [SID131514492] the deposit lists two-siRNA summed score (-2 to +2) = 0; inactive.
PCDH15 [SID131508535] showed two-siRNA summed score (-2 to +2) = 0; inactive.
With knock-down of UNC45A [SID131518196], the screen gave two-siRNA summed score (-2 to +2) = 0; inactive.
